Here are results for one substance from article doi:10.1101/2024.02.09.577647.

The chains behind the UniProt entries cited, without tags or fusion partners.
UniProt Q6P6C2: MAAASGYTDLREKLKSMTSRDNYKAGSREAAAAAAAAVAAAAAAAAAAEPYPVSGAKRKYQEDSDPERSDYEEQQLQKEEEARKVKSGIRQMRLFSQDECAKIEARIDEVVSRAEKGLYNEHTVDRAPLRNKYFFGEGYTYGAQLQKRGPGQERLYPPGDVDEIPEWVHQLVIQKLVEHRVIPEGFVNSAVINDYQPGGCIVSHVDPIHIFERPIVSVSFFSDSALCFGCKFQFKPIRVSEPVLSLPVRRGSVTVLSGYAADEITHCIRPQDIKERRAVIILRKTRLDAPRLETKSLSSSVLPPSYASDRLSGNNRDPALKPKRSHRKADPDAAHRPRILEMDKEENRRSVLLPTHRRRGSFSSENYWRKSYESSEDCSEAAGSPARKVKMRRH
UniProt O00571: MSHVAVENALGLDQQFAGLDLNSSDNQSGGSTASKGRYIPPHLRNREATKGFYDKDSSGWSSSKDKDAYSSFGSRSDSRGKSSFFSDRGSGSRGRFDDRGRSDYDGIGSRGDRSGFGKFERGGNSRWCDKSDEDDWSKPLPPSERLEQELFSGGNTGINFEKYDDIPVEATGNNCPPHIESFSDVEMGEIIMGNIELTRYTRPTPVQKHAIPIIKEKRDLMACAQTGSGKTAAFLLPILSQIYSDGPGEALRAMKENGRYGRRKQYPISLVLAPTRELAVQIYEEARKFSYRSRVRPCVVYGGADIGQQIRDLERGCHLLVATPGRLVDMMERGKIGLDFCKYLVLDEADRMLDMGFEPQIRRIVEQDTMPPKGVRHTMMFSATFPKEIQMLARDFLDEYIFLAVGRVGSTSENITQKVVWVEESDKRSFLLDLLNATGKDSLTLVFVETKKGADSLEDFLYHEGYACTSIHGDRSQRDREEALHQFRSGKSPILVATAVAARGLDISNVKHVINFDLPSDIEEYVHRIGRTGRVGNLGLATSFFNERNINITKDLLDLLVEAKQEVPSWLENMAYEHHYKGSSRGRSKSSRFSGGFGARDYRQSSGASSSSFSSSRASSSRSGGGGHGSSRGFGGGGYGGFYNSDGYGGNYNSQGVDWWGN

For this test, the target named is mEGFP-ALKBH5 (UniProt Q6P6C2). Kind of test: co-IP.

No constants are given. Whether binding was seen depends on the method and setting. Binding seen in cells or lysates may run through a third protein. Some entries that bind do so weakly or less than the wild type.

DDX3 (from UniProt O00571 1-662): the binding result is given as “binds”.
